The supplement of paper PMC10849652
The list shows a part of the results. Residues, ends and D or L forms follow the SMILES beside them. *: point of attachment. Cbz = O=C(OCc1ccccc1)*

Sequences of proteins named here, by UniProt entry; tags and fusion partners are left off. A change or cut given only in a name is not applied to a line headed by its entry.
UniProt Q8NFU5: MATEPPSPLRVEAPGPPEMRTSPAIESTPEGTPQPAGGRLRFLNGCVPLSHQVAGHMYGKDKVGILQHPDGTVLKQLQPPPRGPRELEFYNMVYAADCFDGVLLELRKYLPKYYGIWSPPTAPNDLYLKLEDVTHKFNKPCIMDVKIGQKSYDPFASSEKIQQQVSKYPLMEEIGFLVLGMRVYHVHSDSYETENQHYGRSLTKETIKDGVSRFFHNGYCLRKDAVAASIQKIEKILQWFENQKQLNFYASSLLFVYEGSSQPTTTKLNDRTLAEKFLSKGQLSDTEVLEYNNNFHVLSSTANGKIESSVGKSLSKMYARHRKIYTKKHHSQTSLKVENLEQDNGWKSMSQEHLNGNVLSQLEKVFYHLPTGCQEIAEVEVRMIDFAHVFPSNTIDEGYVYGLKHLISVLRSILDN
UniProt Q14573, whole entry, looked up: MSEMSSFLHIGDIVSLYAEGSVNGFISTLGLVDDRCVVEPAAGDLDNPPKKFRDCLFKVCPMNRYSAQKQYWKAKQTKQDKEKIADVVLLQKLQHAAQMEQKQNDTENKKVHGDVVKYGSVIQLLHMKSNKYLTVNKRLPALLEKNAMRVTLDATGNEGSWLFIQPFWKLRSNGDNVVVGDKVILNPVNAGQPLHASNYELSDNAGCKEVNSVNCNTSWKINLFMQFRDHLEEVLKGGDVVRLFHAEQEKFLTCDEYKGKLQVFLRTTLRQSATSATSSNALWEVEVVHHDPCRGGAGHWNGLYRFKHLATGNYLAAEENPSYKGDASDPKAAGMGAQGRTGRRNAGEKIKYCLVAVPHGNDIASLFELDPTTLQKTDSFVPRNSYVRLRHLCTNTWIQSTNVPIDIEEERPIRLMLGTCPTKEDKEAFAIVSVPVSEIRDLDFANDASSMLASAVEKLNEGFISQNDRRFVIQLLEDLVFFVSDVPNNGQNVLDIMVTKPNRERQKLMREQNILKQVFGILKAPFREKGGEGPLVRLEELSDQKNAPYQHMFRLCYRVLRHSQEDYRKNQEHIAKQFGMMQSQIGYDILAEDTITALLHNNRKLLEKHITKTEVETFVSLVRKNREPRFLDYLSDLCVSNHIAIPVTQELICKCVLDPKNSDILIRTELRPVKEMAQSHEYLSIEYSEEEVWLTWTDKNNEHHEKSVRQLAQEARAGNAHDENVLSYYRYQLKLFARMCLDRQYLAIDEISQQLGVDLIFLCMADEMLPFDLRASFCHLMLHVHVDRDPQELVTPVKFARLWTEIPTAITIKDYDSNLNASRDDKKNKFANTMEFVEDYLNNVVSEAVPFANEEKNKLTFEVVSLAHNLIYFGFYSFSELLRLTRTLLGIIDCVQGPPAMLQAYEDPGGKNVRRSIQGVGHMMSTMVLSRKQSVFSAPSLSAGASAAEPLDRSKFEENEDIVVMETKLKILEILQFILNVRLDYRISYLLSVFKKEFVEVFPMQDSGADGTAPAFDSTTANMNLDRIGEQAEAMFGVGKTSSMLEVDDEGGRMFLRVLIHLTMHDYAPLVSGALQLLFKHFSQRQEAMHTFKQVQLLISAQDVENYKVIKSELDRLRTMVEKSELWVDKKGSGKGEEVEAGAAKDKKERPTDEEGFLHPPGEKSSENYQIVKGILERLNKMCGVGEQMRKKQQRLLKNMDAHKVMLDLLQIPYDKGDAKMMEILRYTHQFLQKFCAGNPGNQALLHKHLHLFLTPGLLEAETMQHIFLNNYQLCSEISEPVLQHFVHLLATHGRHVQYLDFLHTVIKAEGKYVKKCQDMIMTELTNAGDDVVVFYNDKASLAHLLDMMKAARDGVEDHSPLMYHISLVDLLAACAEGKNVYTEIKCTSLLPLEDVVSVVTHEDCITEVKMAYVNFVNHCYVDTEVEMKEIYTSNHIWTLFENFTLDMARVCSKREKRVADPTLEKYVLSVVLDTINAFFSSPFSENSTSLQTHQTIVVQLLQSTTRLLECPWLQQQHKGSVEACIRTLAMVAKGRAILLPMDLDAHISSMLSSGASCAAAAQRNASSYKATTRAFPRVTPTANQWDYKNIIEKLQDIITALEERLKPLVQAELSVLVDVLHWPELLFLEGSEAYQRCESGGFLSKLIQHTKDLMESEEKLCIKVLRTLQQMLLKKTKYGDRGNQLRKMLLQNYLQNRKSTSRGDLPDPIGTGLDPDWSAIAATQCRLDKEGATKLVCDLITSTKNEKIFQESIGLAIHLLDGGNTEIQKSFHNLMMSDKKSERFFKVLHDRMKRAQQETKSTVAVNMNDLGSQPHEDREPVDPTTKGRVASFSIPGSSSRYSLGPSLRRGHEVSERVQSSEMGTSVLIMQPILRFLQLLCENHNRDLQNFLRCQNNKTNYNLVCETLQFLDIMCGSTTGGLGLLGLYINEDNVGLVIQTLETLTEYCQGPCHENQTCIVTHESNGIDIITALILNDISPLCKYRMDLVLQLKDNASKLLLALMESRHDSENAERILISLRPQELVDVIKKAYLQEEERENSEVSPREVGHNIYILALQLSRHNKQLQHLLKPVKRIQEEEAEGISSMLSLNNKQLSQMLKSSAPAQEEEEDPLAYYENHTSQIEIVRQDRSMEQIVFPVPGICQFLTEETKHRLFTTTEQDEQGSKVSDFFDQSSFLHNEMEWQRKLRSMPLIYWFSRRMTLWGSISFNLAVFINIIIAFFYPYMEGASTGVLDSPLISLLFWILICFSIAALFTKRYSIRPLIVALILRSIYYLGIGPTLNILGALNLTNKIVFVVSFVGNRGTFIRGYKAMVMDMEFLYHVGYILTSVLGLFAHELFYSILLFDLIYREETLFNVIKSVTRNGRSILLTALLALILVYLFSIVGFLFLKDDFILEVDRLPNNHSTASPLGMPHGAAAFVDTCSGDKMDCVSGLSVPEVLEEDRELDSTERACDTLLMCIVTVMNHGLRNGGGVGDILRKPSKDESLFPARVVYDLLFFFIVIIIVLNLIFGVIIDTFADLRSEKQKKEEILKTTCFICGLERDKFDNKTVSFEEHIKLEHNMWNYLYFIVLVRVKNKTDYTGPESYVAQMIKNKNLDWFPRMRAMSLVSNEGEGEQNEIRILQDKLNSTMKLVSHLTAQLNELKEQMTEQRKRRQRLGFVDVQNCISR
UniProt Q13352: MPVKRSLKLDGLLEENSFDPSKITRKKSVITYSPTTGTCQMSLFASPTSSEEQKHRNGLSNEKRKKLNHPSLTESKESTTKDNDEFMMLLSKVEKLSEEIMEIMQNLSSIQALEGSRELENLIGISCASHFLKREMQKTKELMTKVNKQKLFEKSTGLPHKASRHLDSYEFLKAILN
UniProt Q27J81, whole entry, looked up: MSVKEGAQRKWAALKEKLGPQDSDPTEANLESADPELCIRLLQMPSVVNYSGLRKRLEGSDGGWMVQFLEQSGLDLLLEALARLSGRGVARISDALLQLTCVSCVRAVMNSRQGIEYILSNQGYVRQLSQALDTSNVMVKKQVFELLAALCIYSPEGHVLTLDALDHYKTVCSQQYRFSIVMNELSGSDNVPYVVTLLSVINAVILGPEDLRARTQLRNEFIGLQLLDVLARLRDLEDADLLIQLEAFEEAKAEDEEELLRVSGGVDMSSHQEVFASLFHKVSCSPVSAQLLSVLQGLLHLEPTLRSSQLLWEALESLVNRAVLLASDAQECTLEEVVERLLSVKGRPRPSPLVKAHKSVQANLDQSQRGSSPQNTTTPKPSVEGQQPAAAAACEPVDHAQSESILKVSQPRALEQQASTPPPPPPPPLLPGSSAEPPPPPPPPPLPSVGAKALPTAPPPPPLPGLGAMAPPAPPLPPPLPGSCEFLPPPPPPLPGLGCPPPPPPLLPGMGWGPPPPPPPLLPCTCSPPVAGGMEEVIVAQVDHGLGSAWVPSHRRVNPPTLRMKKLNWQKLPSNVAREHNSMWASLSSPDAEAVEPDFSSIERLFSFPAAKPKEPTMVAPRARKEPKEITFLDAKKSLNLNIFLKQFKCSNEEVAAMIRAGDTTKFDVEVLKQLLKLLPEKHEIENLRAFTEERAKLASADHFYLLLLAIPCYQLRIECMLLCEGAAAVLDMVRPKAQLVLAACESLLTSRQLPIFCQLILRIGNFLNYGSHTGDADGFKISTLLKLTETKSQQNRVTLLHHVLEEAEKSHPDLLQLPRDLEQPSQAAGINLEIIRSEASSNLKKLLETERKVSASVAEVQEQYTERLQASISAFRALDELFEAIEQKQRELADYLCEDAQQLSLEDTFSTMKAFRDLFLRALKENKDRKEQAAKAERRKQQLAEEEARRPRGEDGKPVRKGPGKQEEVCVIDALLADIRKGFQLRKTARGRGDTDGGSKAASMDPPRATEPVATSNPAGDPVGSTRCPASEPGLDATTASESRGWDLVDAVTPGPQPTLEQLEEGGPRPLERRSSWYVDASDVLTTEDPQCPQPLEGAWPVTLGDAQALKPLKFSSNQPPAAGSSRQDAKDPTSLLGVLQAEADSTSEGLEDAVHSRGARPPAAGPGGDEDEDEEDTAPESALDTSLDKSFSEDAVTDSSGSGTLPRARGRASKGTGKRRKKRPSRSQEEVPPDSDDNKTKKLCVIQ
UniProt P01877, whole entry, looked up: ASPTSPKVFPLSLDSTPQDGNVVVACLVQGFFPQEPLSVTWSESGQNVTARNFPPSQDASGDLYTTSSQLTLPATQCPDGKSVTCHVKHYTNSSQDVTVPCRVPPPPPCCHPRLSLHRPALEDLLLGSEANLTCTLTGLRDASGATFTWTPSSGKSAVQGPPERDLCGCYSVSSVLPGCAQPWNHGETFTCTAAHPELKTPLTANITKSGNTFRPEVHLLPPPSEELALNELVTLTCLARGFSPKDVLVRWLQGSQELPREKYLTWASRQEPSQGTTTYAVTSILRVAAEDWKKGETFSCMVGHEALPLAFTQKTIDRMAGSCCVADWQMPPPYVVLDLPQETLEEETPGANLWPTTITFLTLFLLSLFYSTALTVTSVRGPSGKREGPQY
UniProt Q8WYH8, whole entry, looked up: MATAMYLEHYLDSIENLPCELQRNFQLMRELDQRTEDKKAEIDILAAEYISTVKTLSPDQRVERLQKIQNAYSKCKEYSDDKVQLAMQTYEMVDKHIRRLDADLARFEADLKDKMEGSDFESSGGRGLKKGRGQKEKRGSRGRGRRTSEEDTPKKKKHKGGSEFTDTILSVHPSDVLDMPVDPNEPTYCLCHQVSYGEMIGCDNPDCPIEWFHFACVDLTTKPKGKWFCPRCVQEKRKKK
UniProt Q9NRY2: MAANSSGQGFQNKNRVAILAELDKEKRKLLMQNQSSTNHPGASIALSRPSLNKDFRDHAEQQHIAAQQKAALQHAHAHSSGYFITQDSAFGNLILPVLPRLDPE
UniProt Q9UK53: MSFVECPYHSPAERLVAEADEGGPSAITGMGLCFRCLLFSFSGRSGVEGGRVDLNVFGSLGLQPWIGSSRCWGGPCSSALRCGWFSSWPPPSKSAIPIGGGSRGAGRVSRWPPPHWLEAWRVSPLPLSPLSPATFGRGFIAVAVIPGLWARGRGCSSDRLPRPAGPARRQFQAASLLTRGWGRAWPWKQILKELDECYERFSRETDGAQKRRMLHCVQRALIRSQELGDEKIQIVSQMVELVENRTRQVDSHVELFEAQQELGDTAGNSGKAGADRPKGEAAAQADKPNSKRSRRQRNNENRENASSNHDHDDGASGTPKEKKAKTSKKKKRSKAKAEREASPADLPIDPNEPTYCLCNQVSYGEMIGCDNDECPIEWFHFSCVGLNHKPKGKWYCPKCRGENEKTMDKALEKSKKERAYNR
UniProt Q9Y573: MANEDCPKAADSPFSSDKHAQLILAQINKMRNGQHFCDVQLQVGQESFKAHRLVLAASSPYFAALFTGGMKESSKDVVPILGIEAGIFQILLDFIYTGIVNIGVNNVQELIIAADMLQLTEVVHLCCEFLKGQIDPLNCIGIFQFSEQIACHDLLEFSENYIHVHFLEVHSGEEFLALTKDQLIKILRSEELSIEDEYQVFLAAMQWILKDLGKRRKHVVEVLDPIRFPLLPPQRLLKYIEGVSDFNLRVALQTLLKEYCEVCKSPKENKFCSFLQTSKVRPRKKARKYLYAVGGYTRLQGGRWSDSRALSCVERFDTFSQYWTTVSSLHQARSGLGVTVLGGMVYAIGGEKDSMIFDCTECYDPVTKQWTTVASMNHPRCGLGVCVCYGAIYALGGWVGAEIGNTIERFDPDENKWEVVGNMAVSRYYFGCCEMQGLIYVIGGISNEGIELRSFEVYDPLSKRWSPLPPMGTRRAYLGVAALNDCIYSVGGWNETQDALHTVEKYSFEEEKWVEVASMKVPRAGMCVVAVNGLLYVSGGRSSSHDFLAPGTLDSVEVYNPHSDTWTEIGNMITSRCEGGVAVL

Legend:
Test in all cases: log2 fold change, soluble protein after heating vs DMSO (PISA); higher = thermal stabilisation; K562 cells, 10 uM, 30 min; active = over 0.2 and 3.5 SD of the protein, either way, in both replicates (recomputed)
[1] = compound: CC1=C(C(CC(=O)N1)C2=CC=C(C=C2)C(F)(F)F)C(=O)NC3=C(C=C4C(=C3)C=NN4)F
How it was run: (§1)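 K562 cells at 2×10^6 cells/mL were exposed to 10 μM compound for 30 min, then aliquots were heated for 3 min across 48°C-58°C, pooled, and extracted in PBS containing 0.5% NP-40 at 4°C. The supernatant after 21,000xg for 90 min was taken as soluble protein and measured by TMTpro 16plex LC-MS/MS with channel sums equalised. Thermal stability is reported relative to control samples, with values from duplicates. Fold changes are given on a log2 scale.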

IRAK-1-4 Inhibitor I = compound: C1COCCN1CCN2C3=CC=CC=C3N=C2NC(=O)C4=CC(=CC=C4)[N+](=O)[O-] [IRAK-1-4 Inhibitor I]
How it was run: as §1

pinometostat = compound: CC(C)N(C[C@H]1O[C@@H](n2cnc3c(N)ncnc32)[C@H](O)[C@@H]1O)[C@H]1C[C@@H](CCc2nc3cc(C(C)(C)C)ccc3[nH]2)C1 [pinometostat]
How it was run: as §1

erlotinib = compound: C#Cc1cccc(Nc2ncnc3cc(OCCOC)c(OCCOC)cc23)c1 [erlotinib]
How it was run: as §1

[2] = compound: C1=CC(=CC=C1C2=NC3=C(N2)C=C(C=C3)C(=O)N)OC4=CC=C(C=C4)Cl
How it was run: as §1

[3] = compound: C1=CC=C(C=C1)C2=NC(=C(N2)C3=CC=NC=C3)C4=CC(=C(C=C4)Cl)O
How it was run: as §1

ralimetinib = compound: CC(C)(C)Cn1c(N)nc2ccc(-c3[nH]c(C(C)(C)C)nc3-c3ccc(F)cc3)nc21 [ralimetinib]
How it was run: as §1

[4] = compound: CC(C)C1=C2N=C(C=C(N2N=C1)NCC3=CC=CC=C3)NCCCCCCN
How it was run: as §1

[5] = compound: CC(C)C[C@@H](C=O)NC(=O)[C@H](CC(C)C)NC(=O)[C@H](CC(C)C)NC(=O)OCc1ccccc1
How it was run: as §1

[6] = compound: C/C(=N\NC(=O)C1=CC(=CC=C1)S(=O)(=O)N2CCOCC2)/C3=C(C=CC(=C3)Cl)O
How it was run: as §1

[7] = compound: C1=CC2=C(C=CC(=C2)/C=C\3/C(=O)NC(=NCC4=CC=CS4)S3)N=C1
How it was run: as §1

[8] = compound: C1=CC2=NC=CN=C2C=C1/C=C/3\C(=O)NC(=O)S3
How it was run: as §1

[9] = compound: C1=CC=C2C(=C1)C3=NNC4=CC=CC(=C43)C2=O
How it was run: as §1

ibrutinib = compound: C=CC(=O)N1CCC[C@@H](n2nc(-c3ccc(Oc4ccccc4)cc3)c3c(N)ncnc32)C1 [ibrutinib]
How it was run: as §1

[10] = compound: CC(=O)c1cnc2ccc(-c3cc(Cl)c(O)c(Cl)c3)nc2c1N[C@H]1CC[C@H](CN(C)C)CC1
How it was run: as §1

[11] = compound: C1=CC(=C(C=C1Cl)C2=NC3=NC=CN=C3C(=N2)NC4=CC=NC=C4)F
How it was run: as §1

[12] = compound: CC(C)(O)CC(=O)NCCn1ccc2ncnc(Nc3ccc(Oc4cccc(C(F)(F)F)c4)c(Cl)c3)c21
How it was run: as §1

[13] = compound: C1CCN(C1)C(=O)NC2=CC=CC(=C2)NC3=NC=C(C(=N3)NCCC4=CN=CN4)Br
How it was run: as §1

[14] = compound: C1CN(CCC1(CC2=CC=C(C=C2)Cl)N)C3=NC=NC4=C3C=CN4
How it was run: as §1

[15] = compound: CC1=C(C2=C(C=C1)C(=O)C3=CC=CC=C3N2CCCN)C
How it was run: as §1

Measured: log2 fold change

IPMK (UniProt Q8NFU5)
inactive: [1] -0.403

ITPR3 (UniProt Q14573)
inactive: IRAK-1-4 Inhibitor I -0.416 | pinometostat 0.383

ITGB3BP isoform 5 (UniProt Q13352)
inactive: erlotinib -0.221 | [2] 0.018 | [3] -0.087 | ralimetinib 0.02 | [4] 0.11 | [5] 0.036 | [1] 0.262

ISL2 (UniProt Q96A47)
inactive: [6] 0.035 | [7] -0.01 | [8] -0.137 | [9] -0.1 | IRAK-1-4 Inhibitor I -0.295 | ibrutinib 0.074 | [10] -0.14 | pinometostat -0.266

INF2 (UniProt Q27J81)
inactive: [6] -0.052 | [11] -0.069 | [7] -0.019 | [8] 0.001 | [3] 0.022 | [9] 0.045 | IRAK-1-4 Inhibitor I 0.12 | ibrutinib -0.007 | [10] -0.077 | ralimetinib 0.044 | [12] -0.003 | [5] 0.072 | pinometostat 0.116 | [1] 0.021

IGHA2 (UniProt P01877)
inactive: [1] -0.355

ING5 (UniProt Q8WYH8)
inactive: erlotinib 0.273 | [2] -0.119 | [13] 0.003 | [14] 0.286 | IRAK-1-4 Inhibitor I 0.101 | [4] -0.395 | pinometostat 0.097 | [15] 0.03

IGLL5 (UniProt B9A064)
inactive: [8] -0.068 | [13] -0.058 | [14] -0.222 | IRAK-1-4 Inhibitor I -0.106 | ibrutinib 0.175 | pinometostat -0.104 | [1] 0.177 | [15] 0.371

IMPA1 (UniProt E5RIP7)
inactive: [8] 0.15 | ibrutinib 0.126

INIP (UniProt Q9NRY2)
inactive: [11] 0.269 | [12] 0.178 | [1] 0.081

ING1 (UniProt Q9UK53)
inactive: [6] 0.084 | [7] -0.012 | [8] -0.06 | [9] 0.074 | [13] -0.043 | [14] 0.096 | IRAK-1-4 Inhibitor I 0.462 | ibrutinib 0.025 | [10] 0.053 | pinometostat -0.052 | [15] -0.003

IPP (UniProt Q9Y573)
inactive: [6] 0.091 | [7] 0.083 | [8] -0.17 | [9] 0.139 | ibrutinib 0.041 | [10] -0.084

Two consecutive entries from above, for reference:
ING1 (UniProt Q9UK53)
inactive: [6] 0.084 | [7] -0.012 | [8] -0.06 | [9] 0.074 | [13] -0.043 | [14] 0.096 | IRAK-1-4 Inhibitor I 0.462 | ibrutinib 0.025 | [10] 0.053 | pinometostat -0.052 | [15] -0.003

IPP (UniProt Q9Y573)
inactive: [6] 0.091 | [7] 0.083 | [8] -0.17 | [9] 0.139 | ibrutinib 0.041 | [10] -0.084
